Results are given in words; binding and its absence hold for the method and conditions named.
Biological target: T1, FASTK∆N1-75 (Homo sapiens, UniProt Q14296 76-549, del1-75)
T1 sequence: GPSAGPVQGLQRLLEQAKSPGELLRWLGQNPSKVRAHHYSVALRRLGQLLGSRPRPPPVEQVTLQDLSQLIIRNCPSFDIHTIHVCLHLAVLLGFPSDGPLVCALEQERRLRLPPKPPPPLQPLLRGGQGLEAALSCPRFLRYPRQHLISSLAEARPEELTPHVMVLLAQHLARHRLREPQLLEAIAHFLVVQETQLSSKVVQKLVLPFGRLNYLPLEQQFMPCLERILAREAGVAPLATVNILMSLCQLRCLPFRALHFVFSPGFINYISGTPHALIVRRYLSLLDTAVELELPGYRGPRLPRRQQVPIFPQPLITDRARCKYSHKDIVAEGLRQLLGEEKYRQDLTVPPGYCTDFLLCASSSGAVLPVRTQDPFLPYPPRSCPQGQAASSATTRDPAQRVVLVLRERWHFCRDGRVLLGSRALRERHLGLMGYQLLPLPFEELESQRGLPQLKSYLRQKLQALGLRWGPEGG
Assay: SEC-MALS; 100 μL of purified protein at 5 mg/mL (~94 μM) injected on Superdex 200 Increase 10/300 GL in 1× PBS, 50 mM ammonium sulfate, 5% (v/v) glycerol, 1 mM DTT; BSA as calibration standard; both purified

binding: no binding (tested: ~94 μM)
B1: FASTK∆N1‐75 (domain or fragment, UniProt Q14296 76-549)
chain: T1 sequence
